Test results reported in article PMC7278938, “The MKK-Dependent Phosphorylation of p38α Is Augmented by Arginine Methylation on Arg49/Arg149 during Erythroid Differentiation” (International Journal of Molecular Sciences, 2020).
No constants are given. Whether binding was seen depends on the method and setting. Binding seen in cells or lysates may run through a third protein. Some binding calls cover weakened binding; strength is not graded here.

By UniProt entry, the sequences of proteins in these tests, tags left out.
UniProt Q16539: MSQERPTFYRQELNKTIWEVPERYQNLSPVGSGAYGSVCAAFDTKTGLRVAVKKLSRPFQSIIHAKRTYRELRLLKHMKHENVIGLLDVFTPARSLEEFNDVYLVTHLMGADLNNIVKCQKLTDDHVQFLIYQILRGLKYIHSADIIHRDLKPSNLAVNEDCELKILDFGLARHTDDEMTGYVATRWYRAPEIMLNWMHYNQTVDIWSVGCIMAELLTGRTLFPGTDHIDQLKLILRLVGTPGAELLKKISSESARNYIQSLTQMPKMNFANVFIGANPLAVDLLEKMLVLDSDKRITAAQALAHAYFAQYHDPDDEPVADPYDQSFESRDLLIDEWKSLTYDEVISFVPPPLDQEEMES

Molecular target: Flag-p38α wild type (UniProt Q16539 1-360)
Experiment: co-IP; Flag-p38α immunoprecipitated with anti-Flag antibodies and protein G agarose at 4 °C from lysates (1 mg) of p38α-knockdown K562 cells after AraC (1 μM, 5 h); lysis buffer 150 mM NaCl, 20 mM Tris pH 7.4, 0.2% Triton X-100; partners detected by Western blot and quantified; in Figure 6D with or without HA-PRMT1

B1: MAPK kinase 3 (MKK3) (enzyme, human (endogenous in K562), UniProt P46734 1-347, looked up)
chain: MESPASSQPASMPQSKGKSKRKKDLRISCMSKPPAPNPTPPRNLDSRTFITIGDRNFEVEADDLVTISELGRGAYGVVEKVRHAQSGTIMAVKRIRATVNSQEQKRLLMDLDINMRTVDCFYTVTFYGALFREGDVWICMELMDTSLDKFYRKVLDKNMTIPEDILGEIAVSIVRALEHLHSKLSVIHRDVKPSNVLINKEGHVKMCDFGISGYLVDSVAKTMDAGCKPYMAPERINPELNQKGYNVKSDVWSLGITMIEMAILRFPYESWGTPFQQLKQVVEEPSPQLPADRFSPEFVDFTAQCLRKNPAERMSYLELMEHPFFTLHKTKKTDIAAFVKEILGEDS
notes: MKK3 (MAPK kinase 3), endogenous in human K562 cells, detected with anti-MKK3 (Cell Signaling #5674); source: endogenous, K562 lysate
How did the binding turn out when B1 was run?
The binding was “binds”.
